The assay addresses T1, recombinant GM2AP (GM2-activator protein tagged with eight histidines, SEQ ID NO: 3) (human) (UniProt P17900).
T1 sequence: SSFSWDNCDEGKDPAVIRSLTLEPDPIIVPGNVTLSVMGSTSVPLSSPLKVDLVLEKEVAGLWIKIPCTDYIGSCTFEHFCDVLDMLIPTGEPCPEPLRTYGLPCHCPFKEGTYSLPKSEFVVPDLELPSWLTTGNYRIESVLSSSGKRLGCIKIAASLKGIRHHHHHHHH
The assay is described as follows: sandwich ELISA, GBF1 coated as capture, HRP-GEC3 as detection, recombinant GM2AP in 2-fold serial dilution.

Results are given in words; binding and its absence hold for the method and conditions named. Some entries that bind do so weakly or less than the wild type. Sequences can lack the tags named with a protein.

B1: GBF1 (recombinant anti-GM2AP antibody, 21-2B5-F8 LC/21-2B5-F7 HC) (antibody, V domains shown)
VH: EIQLQQSGAELVRPGTSVKISCMASGYSFTGYNMNWVRQSHGRSLEWIGNINPYFGSPNYNQKFKGKATLTLDRSSNTAYMQLNRVTSEDSAVYYCASRQLGLGDTMDYWGQGTSVTVSS
VL: DIVMTQTASSVYVTPGESVSISCRSTKSLLHSNGDTYLYWFLQRPGQSPQLLIYRMSNLAPGVPDRFSGGGSGTAFTLRISRVEAEDVGVYYCMQHLEYPFTFGAGTKLE
Regarding B1, the binding result is recorded as “binds”.

B2: GEC3 (recombinant anti-GM2AP antibody, 21-4E3-C81 LC/21-4E3-C82 HC) (antibody, V domains shown)
VH: QIQLQQSGPELGKPGASVKISCKASDYTFTDFYISWVKQRPGQGLEWIGWIYPLDDHTKYNEKFKGKATLTVDISSNTVYMQLSSLTSEDSAVYFCARIYGYAMDYWGQGTSVTVSS
VL: DIVMTQSHKFMSTSVGDRVTITCKASQDVSTAVGWYQQKPGQSPKLLIYWASTRHTGVPDRFTGSRFGTDYTLTISSVQAEDLALYYCQQHYITPWTFGGGTKLE
Consider B2, for which the binding entry is “binds”.

The values are drawn from patent publication US20240218078A1.
